Literature values as cited in paper PMC8491162, “Targeting the JAK/STAT Pathway: A Combined Ligand- and Target-Based Approach” (Journal of Chemical Information and Modeling, 2021).

By UniProt entry, the sequences of proteins in these tests, tags left out. Where a name states a change or a piece, a line headed by the entry shows the natural chain unless it says otherwise.
UniProt O60674: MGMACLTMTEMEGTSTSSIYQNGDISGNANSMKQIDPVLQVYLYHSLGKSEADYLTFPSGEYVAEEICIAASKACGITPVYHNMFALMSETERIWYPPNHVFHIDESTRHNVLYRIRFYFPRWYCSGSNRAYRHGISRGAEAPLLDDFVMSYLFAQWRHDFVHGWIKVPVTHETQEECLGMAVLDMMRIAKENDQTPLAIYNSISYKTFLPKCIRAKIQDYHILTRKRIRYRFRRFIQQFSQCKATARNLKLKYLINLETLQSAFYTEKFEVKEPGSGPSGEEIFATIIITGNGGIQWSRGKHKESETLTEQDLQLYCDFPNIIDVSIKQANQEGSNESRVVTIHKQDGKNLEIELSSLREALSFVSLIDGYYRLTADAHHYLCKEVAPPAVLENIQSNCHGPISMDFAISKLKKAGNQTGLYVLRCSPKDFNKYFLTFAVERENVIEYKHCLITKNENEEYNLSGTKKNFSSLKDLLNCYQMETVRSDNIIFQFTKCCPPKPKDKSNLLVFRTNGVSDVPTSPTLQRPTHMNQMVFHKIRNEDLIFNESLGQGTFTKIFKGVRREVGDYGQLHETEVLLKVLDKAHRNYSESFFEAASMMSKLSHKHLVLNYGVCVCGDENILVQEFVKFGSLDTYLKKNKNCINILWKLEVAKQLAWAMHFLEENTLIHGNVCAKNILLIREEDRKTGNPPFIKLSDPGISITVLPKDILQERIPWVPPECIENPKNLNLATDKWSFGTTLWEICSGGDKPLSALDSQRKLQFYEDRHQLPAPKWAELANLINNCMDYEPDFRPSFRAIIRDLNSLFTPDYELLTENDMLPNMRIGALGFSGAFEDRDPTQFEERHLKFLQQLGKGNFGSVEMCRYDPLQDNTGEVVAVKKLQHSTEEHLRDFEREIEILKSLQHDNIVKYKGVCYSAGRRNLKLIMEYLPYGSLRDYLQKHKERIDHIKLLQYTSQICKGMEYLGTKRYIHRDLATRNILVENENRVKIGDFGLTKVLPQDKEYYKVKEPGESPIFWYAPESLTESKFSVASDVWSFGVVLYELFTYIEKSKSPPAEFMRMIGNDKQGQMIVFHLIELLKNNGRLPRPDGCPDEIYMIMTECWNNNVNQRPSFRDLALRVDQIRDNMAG

Target: T1, JAK2 (Homo sapiens, UniProt O60674)
T1 construct: purchased BPS Bioscience
Set-up: method as in earlier work
Conditions: Figure 13; read-out: IC50 of commercially available JAK2 inhibitors; cited from earlier work

For `CC(C)(O)C(=O)N1CCN(c2ccc(C(F)(F)F)c(C3=C(c4c[nH]c5ccccc45)C(=O)NC3=O)c2)CC1` [TCS21311], the IC50 is listed as 2.6 µM.
